Data taken from US9133271 (AbbVie / Abbott, dated 2015).
Where a chain is given by its changes, count along the chain named. These are yes or no findings as the source states them, for the method shown. A result given as binding can be weak or reduced; the word gives no strength. One block for each binder: values may come before it.

How the values were obtained:
Cyno (column Cyno XR) [1] = assay: cross-reactivity with cynomolgus DLL3, Biacore
Cyno (column Cyno XR) [2] = assay: cross-reactivity with cynomolgus DLL3, yeast display and flow cytometry

binding (Cyno (column Cyno XR) [2]): binds
B3: SC16.67 (antibody, V domains shown)
VH: EVQLVETGGGLVQPKGSLKLSCAVSAFTFTTYAMNWVRQAPGKGLEWVARIRNKSNNYATYYADSVKDRFTISRDDSQSMLYLQMNNLKIEDTAMYYCVFYYDYVYWGQGTLVTVSA
VL: QAVVTQESALTTSPGETVTLTCRSSTGAVTTSNYANWIQEKPDHLFTGLIGGTNNRAPGVPARFSGSLIGDKAALTITGAQTEDEAIYFCGLWYSNHLVFGGGTKLTVL
notes: murine anti-DLL3 mAb

binding (Cyno (column Cyno XR) [1]): binds
B5: SC16.56 (antibody, V domains shown)
VH: QIQLVQSGPELKKPGETVKISCKASGYTFTNYGMNWVKQAPGKGLKWMAWINTYTGEPTYADDFKGRFAFSLETSASTASLQIINLKNEDTATYFCARIGDSSPSDYWGQGTTLTVSS
VL: SIVMTQTPKFLLVSAGDRVTITCKASQSVSNDVVWYQQKPGQSPKLLIYYASNRYTGVPDRFAGSGYGTDFSFTISTVQAEDLAVYFCQQDYTSPWTFGGGTKLEIR

The next lines start with the binder.

B1: SC16.25 (antibody, V domains shown)
VH: QVTLKESGPGILQPSQTLSLTCSFSGFSLSTSGMGVGWIRQPSGEGLEWLTDIWWDDNKYYNPSLKSRLTISKDTSSNQVFLNITSVDTADTATYYCARRVNYYYDPYYAMDYWGQGTSVTVSS
VL: QIVLTQSPAIMSASPGEKVTMTCSASSSVSYMHWYQQKSGTSPKRWIYDSSKLASGVPARFSGSGSGTSYSLTISSMEAEDAATYYCQQWSSNPLTFGAGTKLELK
binding (Cyno (column Cyno XR) [1]): binds

B2: SC16.15 (antibody, V domains shown)
VH: QVQLQQSGAELAKPGASVKMSCKASGYTFTRYWIHWIKQRPGQGLEWIGYINPTTVYTEFNQNFKDKATLTADKSSTTASMQLSSLTSEDSAVYYCARGGSNFFDYWGQGTTLTVSS
VL: DIQMTQSPASLAASVGETVAITCRASENIYYNLAWYQQKQGKSPQLLIYTANSLEDGVPSRFSGSGSGTQYSLKINSMQPEDSATYFCKQAYDVPPTFGGGTKLEIK
binding (Cyno (column Cyno XR) [1]): binds

B4: SC16.34 (antibody, V domains shown)
VH: B5 VH with K13R, A49G, E57D, S80Y, I84N, D101G, S102N, T113S
VL: B5 VL with V34A, T56S, A63T, S72T, T93S, R107K
binding (Cyno (column Cyno XR) [1]): binds
